These are yes or no findings as the source states them, for the method shown. For some assays here: Binding can be weak; no strength is given.
Columns and labels:
[1] = molecular target: HsCD27 (D249H); assay: flow cytometry, transiently transfected CHO-K1
[2] = molecular target: MmCD27 (H258D); assay: flow cytometry, transiently transfected CHO-K1

binding [1]: no binding
binding [2]: binds
B1: chimeric hCD27.15-c4 (antibody, human IgG4 S228P, kappa, V domains shown)
VH: EVRLQQSGADLVKPGASVKLSCTASGFIIKATYMHWVRQRPEQGLEWIGRIDPANGETKYDPKFQVKATITADTSSSTAYLQLNSLTSDDTAVYYCARYAWYFDVWGAGTTVTVSS
VL: DIQMTQSPASLSASVGDTVTITCRASENIYSFLAWYHQKQGRSPQLLVYHAKTLAEGVPSRFSGSGSGTQFSLKINSLQAEDFGSYYCQHYYGSPLTFGAGTKLEVKR
